Out of some 400,000 compounds screened, about 13,000 (3.2%) were called active. The shares of active, inactive and inconclusive entries below differ from those in the screen. Calls follow the shape of the dose curve; as a rule, active = well fitted cell-killing curve with a large enough effect; inconclusive = small, poorly fitted or top-dose-only effect, or effect the other way; inactive = flat fitted curve, though single readings scatter. Potencies beside an inconclusive call are fits to weak or partial responses and may not hold up.
Assay: qHTS assay for MDR1-selective chemotherapeutics: Primary screen using the drug-selected MDR subline cells KB-V1; also: nearly all actives have a fitted effect of over 60% in size
Conditions: KB-V1 MDR cells viability, CellTiter-Glo, 72 h; activity change, negative = cytotoxicity: at 46.1 µM (top of the series)
Method in brief: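 Cytotoxicity toward P-gp-expressing KB-V1 cells was determined as loss of CellTiter-Glo luminescence after 72 h at 37 degrees C. Compounds were tested in quantitative HTS format across a concentration range, with curves fitted to normalized data.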
% is scaled to controls: 0 for no effect and ±100 for the full control effect; potency is read from the fitted curve at half-maximal effect.

Compound | Potency | activity change, negative = cytotoxicity
COc1ccc2cc(C(c3nnnn3C3CCCC3)N3CCOCC3)c3nnnn3c2c1 (stereo not given) | inconclusive: 4.11 µM [cytotoxic, full curve, poor fit] | –
O=C(Cn1c(NCCCO)nc2ccccc21)c1ccco1 | – | inactive: 7.09%
CCCN=Cc1ccc(O)cc1 | inconclusive: 23.1 µM [rising, single point] | –
COc1ccccc1-c1cc(C(=O)N/N=C/c2cccs2)c2ccccc2n1 | – | inactive: -4.27%
OC(CNCc1ccccc1F)(c1ccc(F)cc1)c1ccc(F)cc1 | inconclusive: 20.6 µM [cytotoxic, single point] | –
CCc1ccc(-c2cc(C)no2)cc1S(=O)(=O)N1CCN(c2cccc(Cl)c2)CC1 | inconclusive: 2.91 µM [cytotoxic, full curve] | –
CCOc1ccc2nc(NS(=O)(=O)Cc3ccccc3)sc2c1 | inconclusive: 5.8 µM [cytotoxic, full curve] | –
CC(C)N1CCN(Cc2ccccc2-c2ccco2)CC1CCO (stereo not given) | inconclusive: 23.1 µM [cytotoxic, single point] | –
CC(=O)Nc1cc2c3c(c1)CC(=O)N3CCC2 | inconclusive: 29.1 µM [rising, single point] | –
CNc1nc(-c2ccccc2)cc(C)c1S(C)(=O)=O | – | inactive: -3.34%
O=[N+]([O-])c1nn(-c2ccc3c(c2)OCCO3)n(O)c1=NC1CCCCC1 | inconclusive: 18.4 µM [cytotoxic, single point] | –
Oc1cccc(C=NN=C2c3ccccc3-c3ccccc32)c1 | active: 18.4 µM | –
N=C(N)c1ccc(-c2ccc(-c3ccc(C(=N)N)cc3)o2)cc1 | inconclusive: 0.731 µM [cytotoxic, full curve, poor fit] | –
CCC(=O)N1CCCc2cc(S(=O)(=O)CCC(=O)Nc3ccccc3C)ccc21 | – | inactive: -1.14%
O=C(NCCNC(=O)c1cccnc1)c1ccc(Br)cc1 | inconclusive: 29.1 µM [rising, single point] | –
O=C(NNC(=O)c1cccc(S(=O)(=O)N2CCCCC2)c1)c1ccccc1 | – | inactive: -4.34%
COCCNC(=O)C1(C)CCCN(C(=O)c2ccco2)C1 (stereo not given) | – | inactive: -0.472%
CCNC(=S)N1CCN(c2nc(-c3ccc(F)cc3)cs2)CC1 | inconclusive: 2.31 µM [rising, partial curve, poor fit] | –
CC(=O)c1cccc(NC(=O)CSc2ccc(-c3ccc4c(c3)OCO4)nn2)c1 | inconclusive: 32.6 µM [cytotoxic, single point] | –
CCCCNc1nc2c(c(=O)n(C)c(=O)n2C)n1Cc1cccc(OC)c1 | inconclusive: 2.31 µM [cytotoxic, full curve, poor fit] | –
COc1ccc(NS(=O)(=O)c2cc(NC(=O)CCc3ccc(OC)c(OC)c3)ccc2N2CCOCC2)cc1 | – | inactive: 6.5%
COc1cccc(OC)c1OC(=O)C1CC(=O)N(c2ccc3c(c2)OCCO3)C1 (stereo not given) | inconclusive: 20.6 µM [rising, partial curve] | –
Cc1ccsc1C(=O)OCC(=O)NCC1CCCO1 (stereo not given) | inconclusive: 25.9 µM [rising, single point] | –
O=C(Nc1ccccc1)c1cccc(N2C(=O)C3C4C=CC(C5CC45)C3C2=O)c1 (stereo not given) | – | inactive: -6.85%
Cc1ccccc1Nc1nc(N)nc(CSc2nc3ccccc3s2)n1 | active: 16.4 µM | –

Compound | Potency | activity change, negative = cytotoxicity
COc1ccc(OCc2nc3ccccc3n2C(C)C)cc1 | inconclusive: 23.1 µM [cytotoxic, single point] | –
Nc1cc(N)nc(SCC(=O)N2CCN(S(=O)(=O)c3ccccc3)CC2)n1 | inconclusive: 18.4 µM [rising, single point] | –
CCN(CC)S(=O)(=O)c1ccc(NC(=O)c2ccc(Cl)nc2)cc1 | – | inactive: -22.4%
Cc1ccc(C2(C)CC(C)(C)N(C(=O)CSc3nnc(C)s3)c3ccccc32)cc1 (stereo not given) | inconclusive: 16.4 µM [cytotoxic, partial curve, poor fit] | –
C=CC(C)(C)c1c(O)c(CC=C(C)C)c(O)c2c(=O)c3ccc(O)c(O)c3oc12 | inconclusive: 20.6 µM [cytotoxic, single point] | –
CCCCNC(=O)C(=O)Nc1ccc2c(c1)N(S(=O)(=O)c1cccs1)CCC2 | active: 2.31 µM | –
O=c1c2ccccc2nc(/C=C/c2cc(Br)ccc2O)n1CCCO | inconclusive: 32.6 µM [cytotoxic, single point] | –
FC(F)(F)c1nc2ccccc2n2c(-c3c(Cl)cccc3Cl)nnc12 | – | inactive: -8.38%
OC[C@@H]1CN(Cc2ccc(Cl)cc2)C[C@H](n2cnc3c(Nc4ccccc4)ncnc32)O1 | – | inactive: -10.9%
Cn1c(=O)c2c(SCC(=O)NCc3ccco3)nc(-c3ccccc3F)nc2n(C)c1=O | – | inactive: 3.79%
CN(CCc1ccccn1)C(=S)NC(=O)c1ccco1 | – | inactive: -3.48%
CCc1ccc(-c2nc(SCC(=O)NC3CCS(=O)(=O)C3)n[nH]2)cc1 (stereo not given) | inconclusive: 29.1 µM [rising, single point] | –
CCOc1ccccc1NC(=O)COc1cccc2c(=O)n(CCOC)ccc12 | inconclusive: 29.1 µM [cytotoxic, partial curve, poor fit] | –
CC1CCC(CC(=O)O)(C(=O)O)CC1 (stereo not given) | – | inactive: 6.59%
Cc1cc(Nc2nnnn2-c2ccccc2)n(-c2ccc(Cl)cc2)n1 | inconclusive: 29.1 µM [cytotoxic, single point] | –
O=C(NCc1ccc(F)cc1)C1CC(=O)N(Cc2ccco2)C1 (stereo not given) | inconclusive: 23.1 µM [rising, partial curve] | –
Oc1ccc(N=Nc2ccccc2)o1 | – | inactive: 0%
O=C(Nc1ccccc1)c1nn(-c2cccc(C(F)(F)F)c2)ccc1=O | – | inactive: -24.2%
Cc1ccc(NC(=O)Nc2cc3c(cc2N2CCCCC2)n(C)c(=O)n3C)cc1Cl | – | inactive: -26.8%
Cc1cccc(-c2noc(-c3ccc(N4CCCC4)c([N+](=O)[O-])c3)n2)c1 | – | inactive: 24.2%
CCOc1c(/C=C(\C#N)C(N)=O)c2ccccc2n1CC | inconclusive: 18.4 µM [cytotoxic, single point] | –
CC(C)CCn1c(N)c(S(=O)(=O)c2cccs2)c2nc3ccccc3nc21 | active: 20.6 µM | –
CCN(C(=O)CN(C)S(=O)(=O)c1ccc2c(c1)n(C)c(=O)c(=O)n2C)c1cccc(C)c1 | – | inactive: 7.16%
O=C1C(Cl)=C(NC(=O)c2ccccc2)C(=O)C(Cl)=C1NC(=O)c1ccccc1 | inconclusive: 29.1 µM [cytotoxic, single point] | –
COc1ccc(C=O)cc1CN1C(=O)c2ccccc2C1=O | inconclusive: 25.9 µM [rising, single point] | –

Compound | Potency | activity change, negative = cytotoxicity
CCN1CCN(C(=O)c2cc(-c3cccnc3)nc3ccc(Br)cc23)CC1 | – | inactive: 0%
CCCCCCCCCC[n+]1cccc(Br)c1 | – | inactive: 2.19%
CC1CCCCN1CC(O)COc1ccc(OCC(O)CN2CCCCC2C)cc1 (stereo not given) | inconclusive: 5.17 µM [rising, single point] | –
Cc1cccc(OCC(=O)NCC(c2cccs2)N2CCOCC2)c1 (stereo not given) | – | inconclusive: 9.71%
CCCn1ncc(CN2CCC(Oc3ccc(C(=O)N4CCCC4)cc3)CC2)c1C | – | inactive: -9.36%
O=C(CSCc1ccc(F)cc1)N1CCN(c2ccccc2)CC1 | inconclusive: 23.1 µM [cytotoxic, single point] | –
O=C(NCc1csc(-c2cccs2)n1)c1cccc(Cl)c1 | inconclusive: 29.1 µM [cytotoxic, single point] | –
CN(C)c1ccc(C(CNS(=O)(=O)c2cc(F)ccc2F)N2CCOCC2)cc1 (stereo not given) | – | inactive: 4.28%
CCOC(=O)CCC(=O)Nc1ccc(S(=O)(=O)N2CCC(C)CC2)cc1 | – | inactive: 2.4%
O=C(CN(Cc1ccccc1)C(=O)CCC(=O)Nc1nccs1)NCc1ccccc1 | – | inactive: -1.74%
COc1ccc(COCC(O)CN2CCc3ccccc3C2)cc1OC (stereo not given) | inconclusive: 16.4 µM [cytotoxic, partial curve] | –
Cc1oc2c(C)c3oc(=O)c4c(c3cc2c1C)CCCC4 | inconclusive: 8.2 µM [cytotoxic, partial curve] | –
CCCCNC(=O)C1C(c2ccccc2)=Nc2ccccc2N1C(=O)c1ccc(C)cc1 (stereo not given) | inconclusive: 5.8 µM [cytotoxic, partial curve, poor fit] | –
CCN(CC)C(=O)c1sc(NC(=O)C2c3ccccc3Oc3ccccc32)c(C(=O)OC(C)C)c1C | – | inactive: 22.1%
O=C1c2ccsc2SCCN1Cc1ccc(Cl)cc1Cl | inconclusive: 20.6 µM [cytotoxic, single point] | –
O=C(CCc1ccccc1)NCC(c1ccco1)N1CCc2ccccc21 (stereo not given) | active: 7.31 µM | –
C#CCOc1c(Cl)cc(/C=C2/C(=O)ON=C2C)cc1OCC | inconclusive: 29.1 µM [rising, single point] | –
Cc1ccnc(N2CCC(C(=O)Nc3cccc(C(F)(F)F)c3)CC2)n1 | inconclusive: 29.1 µM [cytotoxic, single point] | –
O=C(NC(=S)Nc1cccnc1Cl)c1ccco1 | inconclusive: 16.4 µM [cytotoxic, partial curve, poor fit] | –
CC(C)OCCCNC(=O)NC(=O)c1ccc(Cl)cc1 | inconclusive: 13 µM [cytotoxic, partial curve] | –
CCCc1sc(N/N=C/c2ccccn2)nc1-c1ccc(Br)cc1 | inconclusive: 2.59 µM [cytotoxic, partial curve, poor fit] | –
O=C(NCc1cccc(C(F)(F)F)c1)C1C(=O)Nc2ccccc2C(=O)N1C1CCCC1 (stereo not given) | inconclusive: 18.4 µM [cytotoxic, partial curve, poor fit] | –
CCOc1ccc(Nc2nc3ccccc3c3nnc(CC)n23)cc1 | inconclusive: 0.184 µM [cytotoxic, full curve] | –
COc1ccc(NC(=O)NNC(=O)COc2ccc(Cl)cc2C)cc1OC | – | inconclusive: -16.1%
O=C(Nc1ccc(Br)cc1)c1cccc(S(=O)(=O)Nc2ccccn2)c1 | inconclusive: 29.1 µM [cytotoxic, single point] | –

Arranged by number of heavy atoms (falling): part of the list above
Compound | Potency | activity change, negative = cytotoxicity
CCN(CC)C(=O)c1sc(NC(=O)C2c3ccccc3Oc3ccccc32)c(C(=O)OC(C)C)c1C | – | inactive: 22.1%
CCCn1ncc(CN2CCC(Oc3ccc(C(=O)N4CCCC4)cc3)CC2)c1C | – | inactive: -9.36%
Cc1ccnc(N2CCC(C(=O)Nc3cccc(C(F)(F)F)c3)CC2)n1 | inconclusive: 29.1 µM [cytotoxic, single point] | –

— PubChem BioAssay AID1347076 (National Center for Advancing Translational Sciences (NCATS), 2019)
